Compound in this assay: Nc1nc2c(ncn2[C@@H]2O[C@H](COP(=O)(O)OP(=O)(O)OP(=O)(O)O)[C@@H](O)[C@H]2O)c(=O)[nH]1 [guanosine triphosphate]
Put plainly: NP40-soluble protein abundance relative to vehicle (solubility fold change) (ratio); higher = more soluble protein in presence of GTP. In outline:
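Jurkat crude lysate (Dounce-homogenised) was treated with eight concentrations from 0.1 to 10 mM for 10 min at room temperature, then 3 min at 37 °C. It was solubilised with 0.8% NP40 and benzonase (60 min, 4 °C) and ultracentrifuged, and the supernatant was TMT-labelled for LC-MS/MS. Intensities were vsn-normalised, and the value is the fold change against the NP40-processed vehicle per replicate, from three independent experiments.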

The chains behind the UniProt entries cited, without tags or fusion partners. Where a name states a change or a piece, a line headed by the entry shows the natural chain unless it says otherwise.
UniProt Q96D96: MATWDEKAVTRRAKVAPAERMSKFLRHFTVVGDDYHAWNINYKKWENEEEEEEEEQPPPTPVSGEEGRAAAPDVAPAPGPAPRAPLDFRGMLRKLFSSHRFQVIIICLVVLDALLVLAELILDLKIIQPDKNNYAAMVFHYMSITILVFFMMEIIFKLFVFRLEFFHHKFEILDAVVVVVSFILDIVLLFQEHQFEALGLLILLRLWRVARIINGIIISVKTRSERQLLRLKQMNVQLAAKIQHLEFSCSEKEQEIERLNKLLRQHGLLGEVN
UniProt Q96GX9: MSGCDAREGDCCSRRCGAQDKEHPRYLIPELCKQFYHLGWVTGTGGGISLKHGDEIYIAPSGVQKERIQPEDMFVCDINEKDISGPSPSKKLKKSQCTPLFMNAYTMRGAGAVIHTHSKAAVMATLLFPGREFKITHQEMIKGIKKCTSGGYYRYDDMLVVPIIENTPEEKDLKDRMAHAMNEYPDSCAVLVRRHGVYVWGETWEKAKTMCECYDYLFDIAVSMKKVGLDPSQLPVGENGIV
UniProt Q96GX5: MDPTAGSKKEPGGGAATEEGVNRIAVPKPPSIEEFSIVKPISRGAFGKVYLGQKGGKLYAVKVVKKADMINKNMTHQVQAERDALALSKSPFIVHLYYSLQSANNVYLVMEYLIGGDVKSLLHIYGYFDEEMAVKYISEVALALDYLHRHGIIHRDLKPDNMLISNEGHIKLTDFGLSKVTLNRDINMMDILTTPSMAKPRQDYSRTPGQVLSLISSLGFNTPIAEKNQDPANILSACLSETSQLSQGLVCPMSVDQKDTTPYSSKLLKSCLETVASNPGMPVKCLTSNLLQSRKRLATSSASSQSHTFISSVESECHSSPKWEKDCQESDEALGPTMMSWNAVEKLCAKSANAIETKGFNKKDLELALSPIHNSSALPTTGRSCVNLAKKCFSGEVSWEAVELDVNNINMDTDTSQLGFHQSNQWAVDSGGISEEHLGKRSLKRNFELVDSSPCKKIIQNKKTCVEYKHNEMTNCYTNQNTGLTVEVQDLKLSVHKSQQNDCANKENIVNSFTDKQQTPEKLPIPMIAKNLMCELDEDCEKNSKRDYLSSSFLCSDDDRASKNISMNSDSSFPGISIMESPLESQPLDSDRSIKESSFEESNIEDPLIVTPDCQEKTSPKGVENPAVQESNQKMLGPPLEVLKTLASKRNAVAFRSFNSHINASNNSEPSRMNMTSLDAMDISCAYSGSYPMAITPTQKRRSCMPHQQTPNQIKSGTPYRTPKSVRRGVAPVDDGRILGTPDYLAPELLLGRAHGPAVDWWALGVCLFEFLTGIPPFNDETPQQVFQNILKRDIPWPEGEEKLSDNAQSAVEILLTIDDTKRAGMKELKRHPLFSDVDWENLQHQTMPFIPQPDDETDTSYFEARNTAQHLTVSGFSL
UniProt Q96C19: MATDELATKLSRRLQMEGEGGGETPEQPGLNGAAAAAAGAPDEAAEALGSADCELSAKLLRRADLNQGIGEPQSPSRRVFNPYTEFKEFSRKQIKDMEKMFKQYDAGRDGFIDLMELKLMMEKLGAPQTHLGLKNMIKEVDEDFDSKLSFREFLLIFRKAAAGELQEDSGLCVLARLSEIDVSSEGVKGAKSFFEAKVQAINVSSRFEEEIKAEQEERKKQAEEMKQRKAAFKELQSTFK
UniProt Q96BN2: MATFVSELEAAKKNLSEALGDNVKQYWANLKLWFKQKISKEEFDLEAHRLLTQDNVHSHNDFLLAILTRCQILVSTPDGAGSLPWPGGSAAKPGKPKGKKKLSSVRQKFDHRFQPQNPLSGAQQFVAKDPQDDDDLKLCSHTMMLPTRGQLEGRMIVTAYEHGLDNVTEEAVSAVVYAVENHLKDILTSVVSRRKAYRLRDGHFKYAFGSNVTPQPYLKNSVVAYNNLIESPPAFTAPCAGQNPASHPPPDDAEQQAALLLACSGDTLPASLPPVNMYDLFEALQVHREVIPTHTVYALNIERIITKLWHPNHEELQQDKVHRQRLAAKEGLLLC
UniProt Q96I24: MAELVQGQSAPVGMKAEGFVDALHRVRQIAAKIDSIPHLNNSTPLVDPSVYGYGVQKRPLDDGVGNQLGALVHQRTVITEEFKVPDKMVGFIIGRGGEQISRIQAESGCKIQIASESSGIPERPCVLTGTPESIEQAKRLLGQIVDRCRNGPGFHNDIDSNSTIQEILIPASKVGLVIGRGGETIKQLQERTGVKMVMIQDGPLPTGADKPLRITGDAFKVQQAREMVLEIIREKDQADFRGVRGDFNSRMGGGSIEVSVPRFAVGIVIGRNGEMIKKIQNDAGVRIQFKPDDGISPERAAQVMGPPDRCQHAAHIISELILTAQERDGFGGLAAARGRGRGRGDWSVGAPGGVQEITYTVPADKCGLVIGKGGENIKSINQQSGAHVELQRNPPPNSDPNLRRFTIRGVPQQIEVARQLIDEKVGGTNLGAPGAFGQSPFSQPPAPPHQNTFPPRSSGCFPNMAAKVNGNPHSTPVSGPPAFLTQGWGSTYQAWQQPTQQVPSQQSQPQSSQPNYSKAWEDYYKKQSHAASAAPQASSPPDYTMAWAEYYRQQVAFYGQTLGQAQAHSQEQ
UniProt Q96IX5: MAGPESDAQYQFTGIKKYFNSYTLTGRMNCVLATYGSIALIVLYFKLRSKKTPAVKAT
UniProt Q96BZ8: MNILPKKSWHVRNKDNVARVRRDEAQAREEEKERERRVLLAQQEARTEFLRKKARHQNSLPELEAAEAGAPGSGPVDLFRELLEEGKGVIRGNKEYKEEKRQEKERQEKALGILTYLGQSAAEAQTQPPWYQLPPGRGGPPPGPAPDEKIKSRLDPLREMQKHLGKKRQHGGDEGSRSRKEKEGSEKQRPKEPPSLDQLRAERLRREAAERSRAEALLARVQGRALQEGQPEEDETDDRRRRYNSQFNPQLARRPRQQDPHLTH
UniProt Q96JG6: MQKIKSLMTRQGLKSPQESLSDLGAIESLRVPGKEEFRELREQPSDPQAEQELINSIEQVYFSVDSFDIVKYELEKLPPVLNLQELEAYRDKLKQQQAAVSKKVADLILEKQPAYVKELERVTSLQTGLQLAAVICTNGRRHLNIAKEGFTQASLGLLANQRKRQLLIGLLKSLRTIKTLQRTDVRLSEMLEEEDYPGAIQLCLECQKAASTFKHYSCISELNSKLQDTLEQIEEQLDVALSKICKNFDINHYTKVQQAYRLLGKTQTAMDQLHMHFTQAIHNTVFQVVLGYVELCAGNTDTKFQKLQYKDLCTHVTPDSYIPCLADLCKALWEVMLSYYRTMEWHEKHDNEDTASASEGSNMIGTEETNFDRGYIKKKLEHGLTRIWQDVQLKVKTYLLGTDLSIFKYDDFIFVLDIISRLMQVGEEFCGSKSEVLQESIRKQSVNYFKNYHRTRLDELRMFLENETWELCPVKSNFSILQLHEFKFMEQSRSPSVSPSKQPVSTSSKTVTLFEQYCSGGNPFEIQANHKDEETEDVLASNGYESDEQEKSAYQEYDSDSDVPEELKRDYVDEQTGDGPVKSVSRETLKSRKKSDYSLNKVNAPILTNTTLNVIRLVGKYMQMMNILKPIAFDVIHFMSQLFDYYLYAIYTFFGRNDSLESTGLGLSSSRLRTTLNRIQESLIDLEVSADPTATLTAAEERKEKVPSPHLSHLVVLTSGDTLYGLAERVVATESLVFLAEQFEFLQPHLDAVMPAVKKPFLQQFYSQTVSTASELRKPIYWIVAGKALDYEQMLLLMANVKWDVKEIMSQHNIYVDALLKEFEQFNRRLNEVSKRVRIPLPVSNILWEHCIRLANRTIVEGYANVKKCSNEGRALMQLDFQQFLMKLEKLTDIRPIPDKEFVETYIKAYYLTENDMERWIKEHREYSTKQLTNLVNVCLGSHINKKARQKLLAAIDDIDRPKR
UniProt Q96BD5: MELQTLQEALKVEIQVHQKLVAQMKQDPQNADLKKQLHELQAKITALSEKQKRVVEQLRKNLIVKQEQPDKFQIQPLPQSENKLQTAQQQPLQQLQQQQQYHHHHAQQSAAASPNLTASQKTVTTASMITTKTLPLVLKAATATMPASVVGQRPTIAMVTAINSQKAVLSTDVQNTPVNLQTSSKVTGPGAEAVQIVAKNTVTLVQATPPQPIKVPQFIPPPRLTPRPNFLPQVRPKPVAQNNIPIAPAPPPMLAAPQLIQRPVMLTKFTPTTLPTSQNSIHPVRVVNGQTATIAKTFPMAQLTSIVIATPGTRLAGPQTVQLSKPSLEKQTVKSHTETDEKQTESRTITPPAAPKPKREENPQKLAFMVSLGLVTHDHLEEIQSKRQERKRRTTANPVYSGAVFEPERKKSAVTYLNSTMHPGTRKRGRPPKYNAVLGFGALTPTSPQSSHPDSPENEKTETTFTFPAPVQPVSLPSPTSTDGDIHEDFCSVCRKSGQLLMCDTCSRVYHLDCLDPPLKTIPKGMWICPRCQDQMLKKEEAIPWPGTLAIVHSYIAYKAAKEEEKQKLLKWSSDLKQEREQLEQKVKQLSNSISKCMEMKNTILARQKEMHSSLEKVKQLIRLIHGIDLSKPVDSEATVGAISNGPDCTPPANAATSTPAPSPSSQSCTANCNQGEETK
UniProt Q93034, whole entry: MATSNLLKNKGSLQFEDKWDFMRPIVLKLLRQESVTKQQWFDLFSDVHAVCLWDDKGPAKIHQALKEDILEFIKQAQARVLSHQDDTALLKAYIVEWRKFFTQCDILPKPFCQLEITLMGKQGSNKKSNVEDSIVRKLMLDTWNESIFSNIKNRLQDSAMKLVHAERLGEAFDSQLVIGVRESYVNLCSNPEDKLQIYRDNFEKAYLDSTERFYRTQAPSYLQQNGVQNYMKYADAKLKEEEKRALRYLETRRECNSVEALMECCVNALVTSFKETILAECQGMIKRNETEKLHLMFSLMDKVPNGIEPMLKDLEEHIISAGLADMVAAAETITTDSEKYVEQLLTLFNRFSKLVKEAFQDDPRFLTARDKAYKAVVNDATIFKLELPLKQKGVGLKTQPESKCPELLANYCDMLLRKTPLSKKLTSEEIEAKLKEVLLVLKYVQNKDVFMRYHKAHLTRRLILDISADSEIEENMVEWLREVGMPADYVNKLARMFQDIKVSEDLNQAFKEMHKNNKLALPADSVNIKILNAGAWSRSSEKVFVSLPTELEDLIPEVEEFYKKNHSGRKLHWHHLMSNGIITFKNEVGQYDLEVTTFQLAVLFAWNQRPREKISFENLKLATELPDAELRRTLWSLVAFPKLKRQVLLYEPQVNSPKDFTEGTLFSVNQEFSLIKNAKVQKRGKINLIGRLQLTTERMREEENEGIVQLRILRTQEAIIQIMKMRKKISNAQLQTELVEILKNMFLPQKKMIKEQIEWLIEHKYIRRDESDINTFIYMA
UniProt Q96IY1: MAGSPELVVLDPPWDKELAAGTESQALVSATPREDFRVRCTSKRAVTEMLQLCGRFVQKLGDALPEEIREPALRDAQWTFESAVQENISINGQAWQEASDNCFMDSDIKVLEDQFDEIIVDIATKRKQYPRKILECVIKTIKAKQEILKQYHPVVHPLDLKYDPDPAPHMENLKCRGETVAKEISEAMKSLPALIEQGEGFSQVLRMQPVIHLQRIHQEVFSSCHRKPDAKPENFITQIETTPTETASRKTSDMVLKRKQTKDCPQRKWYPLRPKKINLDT
UniProt Q92834: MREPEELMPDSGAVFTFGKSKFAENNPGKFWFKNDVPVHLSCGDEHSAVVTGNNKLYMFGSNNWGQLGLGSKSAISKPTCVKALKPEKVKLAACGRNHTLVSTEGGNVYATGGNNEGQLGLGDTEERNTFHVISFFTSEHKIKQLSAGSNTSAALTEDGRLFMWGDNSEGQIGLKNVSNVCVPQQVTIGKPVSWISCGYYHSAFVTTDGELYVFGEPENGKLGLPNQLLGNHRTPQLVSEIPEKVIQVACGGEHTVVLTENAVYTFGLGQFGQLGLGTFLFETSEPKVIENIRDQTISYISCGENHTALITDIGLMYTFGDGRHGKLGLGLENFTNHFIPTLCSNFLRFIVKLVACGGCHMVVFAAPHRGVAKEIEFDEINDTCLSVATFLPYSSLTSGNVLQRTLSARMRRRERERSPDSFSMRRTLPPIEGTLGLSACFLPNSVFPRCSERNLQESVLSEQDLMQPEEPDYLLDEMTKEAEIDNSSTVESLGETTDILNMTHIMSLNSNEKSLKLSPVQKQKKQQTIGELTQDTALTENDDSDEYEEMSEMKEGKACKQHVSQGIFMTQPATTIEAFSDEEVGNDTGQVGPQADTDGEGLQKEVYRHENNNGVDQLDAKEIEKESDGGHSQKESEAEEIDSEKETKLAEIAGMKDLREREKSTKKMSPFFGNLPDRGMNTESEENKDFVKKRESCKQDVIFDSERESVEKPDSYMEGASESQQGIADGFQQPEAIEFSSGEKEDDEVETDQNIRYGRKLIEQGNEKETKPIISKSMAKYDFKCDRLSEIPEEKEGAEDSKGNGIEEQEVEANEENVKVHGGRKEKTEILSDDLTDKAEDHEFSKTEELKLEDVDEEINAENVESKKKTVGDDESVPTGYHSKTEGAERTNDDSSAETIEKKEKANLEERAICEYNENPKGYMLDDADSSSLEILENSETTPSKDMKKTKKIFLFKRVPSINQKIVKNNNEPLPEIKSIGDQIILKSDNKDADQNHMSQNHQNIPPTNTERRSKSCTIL

± gives the standard deviation of the averaged measurements. Some of the results follow.

As for UniProt Q96D96 and related entries, the NP40-soluble protein abundance is 1.08 ± 0.022 (concentration: 0.1mM); 1.05 ± 0.013 (concentration: 0.5mM); 1.03 ± 0.046 (concentration: 1mM); 1.02 ± 0.065 (concentration: 2mM); 1.038 ± 0.0064 (concentration: 4mM); 1.06 ± 0.033 (concentration: 6mM). Further, the NP40-soluble protein abundance (concentration: 8mM) turned out to be 1.01 ± 0.074 and the NP40-soluble protein abundance (concentration: 10mM) was 1.01 ± 0.021.

Regarding TOE1 (UniProt Q96GM8), the NP40-soluble protein abundance runs as follows: (concentration: 0.1mM) 1.06 ± 0.11; (concentration: 0.5mM) 1.018 ± 0.0096; (concentration: 1mM) 1.09 ± 0.12; (concentration: 2mM) 1.14 ± 0.049; (concentration: 4mM) 1.24 ± 0.097; (concentration: 6mM) 1.33 ± 0.052. In addition, the NP40-soluble protein abundance reads like this: (concentration: 8mM) 1.42 ± 0.11; (concentration: 10mM) 1.65 ± 0.1.

Regarding UniProt Q96GX9 and related entries, the NP40-soluble protein abundance was 0.981 ± 0.029 (concentration: 0.1mM); 0.991 ± 0.035 (concentration: 0.5mM); 0.965 ± 0.021 (concentration: 1mM); 0.957 ± 0.038 (concentration: 2mM); 0.935 ± 0.033 (concentration: 4mM); 0.928 ± 0.018 (concentration: 6mM). Also, the NP40-soluble protein abundance reads like this: (concentration: 8mM) 0.929 ± 0.011; (concentration: 10mM) 0.911 ± 0.025.

As to UniProt Q96GX5 and related entries, the NP40-soluble protein abundance by setting is: (concentration: 0.1mM) 1.02 ± 0.041; (concentration: 0.5mM) 1.01 ± 0.065; (concentration: 1mM) 1.04 ± 0.077; (concentration: 2mM) 1 ± 0.073; (concentration: 4mM) 0.959 ± 0.049; (concentration: 6mM) 0.971 ± 0.086. Further, the NP40-soluble protein abundance was 1.02 ± 0.065 (concentration: 8mM) and 0.955 ± 0.031 (concentration: 10mM).

In the case of EFHD2 (UniProt Q96C19), the NP40-soluble protein abundance was found to be 0.93 ± 0.062 (concentration: 0.1mM); 0.874 ± 0.12 (concentration: 0.5mM); 0.953 ± 0.088 (concentration: 1mM); 0.9 ± 0.13 (concentration: 2mM); 0.907 ± 0.12 (concentration: 4mM); 0.904 ± 0.14 (concentration: 6mM). In addition, the NP40-soluble protein abundance runs as follows: (concentration: 8mM) 0.909 ± 0.14; (concentration: 10mM) 0.897 ± 0.12.

Regarding UniProt Q96BN2, the NP40-soluble protein abundance by setting is: (concentration: 0.1mM) 1.11 ± 0.054; (concentration: 0.5mM) 1.05 ± 0.07; (concentration: 1mM) 1.18 ± 0.056; (concentration: 2mM) 1.21 ± 0.04; (concentration: 4mM) 1.3 ± 0.051; (concentration: 6mM) 1.27 ± 0.099. Besides, the NP40-soluble protein abundance worked out at 1.31 ± 0.13 (concentration: 8mM) and 1.29 ± 0.079 (concentration: 10mM).

Consider FUBP3 (UniProt Q96I24), for which the NP40-soluble protein abundance reads like this: (concentration: 0.1mM) 0.958 ± 0.053; (concentration: 0.5mM) 0.948 ± 0.065; (concentration: 1mM) 0.951 ± 0.066; (concentration: 2mM) 0.919 ± 0.089; (concentration: 4mM) 0.907 ± 0.073; (concentration: 6mM) 0.916 ± 0.076. Also, the NP40-soluble protein abundance by setting is: (concentration: 8mM) 0.927 ± 0.054; (concentration: 10mM) 0.914 ± 0.069.

With UniProt Q96IX5, the NP40-soluble protein abundance runs as follows: (concentration: 0.1mM) 0.871 ± 0.1; (concentration: 0.5mM) 0.881 ± 0.086; (concentration: 1mM) 0.988 ± 0.15; (concentration: 2mM) 1.03 ± 0.11; (concentration: 4mM) 1.06 ± 0.1; (concentration: 6mM) 1.01 ± 0.13. Also, the NP40-soluble protein abundance by setting is: (concentration: 8mM) 0.889 ± 0.099; (concentration: 10mM) 1.03 ± 0.17.

As for LENG1 (UniProt Q96BZ8), the NP40-soluble protein abundance by setting is: (concentration: 0.1mM) 1.06 ± 0.072; (concentration: 0.5mM) 0.886 ± 0.1; (concentration: 1mM) 1.11 ± 0.062; (concentration: 2mM) 1.21 ± 0.14; (concentration: 4mM) 1.34 ± 0.086; (concentration: 6mM) 1.27 ± 0.12. Moreover, the NP40-soluble protein abundance (concentration: 8mM) came to 1.1 ± 0.18 and the NP40-soluble protein abundance (concentration: 10mM) came out at 1.48 ± 0.078.

Consider UniProt Q96JG6, for which the NP40-soluble protein abundance is, setting by setting: (concentration: 0.1mM) 1.05 ± 0.059; (concentration: 0.5mM) 1.04 ± 0.039; (concentration: 1mM) 1.02 ± 0.061; (concentration: 2mM) 1 ± 0.013; (concentration: 4mM) 1.02 ± 0.044; (concentration: 6mM) 1.04 ± 0.025. Further, the NP40-soluble protein abundance (concentration: 8mM) was determined as 1.01 ± 0.019 and the NP40-soluble protein abundance (concentration: 10mM) amounted to 0.964 ± 0.012.

Turning to UniProt Q96BD5 and related entries, the NP40-soluble protein abundance was determined as 1.01 ± 0.025 (concentration: 0.1mM); 1.02 ± 0.035 (concentration: 0.5mM); 1.04 ± 0.043 (concentration: 1mM); 1.08 ± 0.054 (concentration: 2mM); 1.09 ± 0.057 (concentration: 4mM); 1.14 ± 0.065 (concentration: 6mM). For the same target, the NP40-soluble protein abundance was 1.15 ± 0.086 (concentration: 8mM) and 1.16 ± 0.12 (concentration: 10mM).

Consider CUL5 (UniProt Q93034), for which the NP40-soluble protein abundance (concentration: 0.1mM) worked out at 1.1 ± 0.037; the NP40-soluble protein abundance (concentration: 0.5mM) turned out to be 1.08 ± 0.07; the NP40-soluble protein abundance (concentration: 1mM) was found to be 1 ± 0.041; the NP40-soluble protein abundance (concentration: 2mM) is 1.04 ± 0.081; the NP40-soluble protein abundance (concentration: 4mM) was found to be 1.02 ± 0.04; the NP40-soluble protein abundance (concentration: 6mM) turned out to be 0.991 ± 0.045. In addition, the NP40-soluble protein abundance by setting is: (concentration: 8mM) 0.972 ± 0.028; (concentration: 10mM) 0.937 ± 0.038.

As for UniProt Q96BY6-3|Q96BY6, the NP40-soluble protein abundance runs as follows: (concentration: 0.1mM) 1.06 ± 0.09; (concentration: 0.5mM) 1.09 ± 0.11; (concentration: 1mM) 1.02 ± 0.12; (concentration: 2mM) 1.07 ± 0.14; (concentration: 4mM) 1.06 ± 0.12; (concentration: 6mM) 1.05 ± 0.12. The NP40-soluble protein abundance runs as follows: (concentration: 8mM) 1.03 ± 0.12; (concentration: 10mM) 1.01 ± 0.11.

Take NSL1 (UniProt Q96IY1): the NP40-soluble protein abundance runs as follows: (concentration: 0.1mM) 1.02 ± 0.028; (concentration: 0.5mM) 0.966 ± 0.024; (concentration: 1mM) 0.999 ± 0.058; (concentration: 2mM) 0.966 ± 0.053; (concentration: 4mM) 1.03 ± 0.074; (concentration: 6mM) 0.994 ± 0.039. Besides, the NP40-soluble protein abundance was 0.995 ± 0.064 (concentration: 8mM) and 0.932 ± 0.06 (concentration: 10mM).

Consider RPGR (UniProt Q92834), for which the NP40-soluble protein abundance worked out at 1.06 ± 0.046 (concentration: 0.1mM); 0.991 ± 0.074 (concentration: 0.5mM); 1.07 ± 0.087 (concentration: 1mM); 1.04 ± 0.16 (concentration: 2mM); 0.974 ± 0.056 (concentration: 4mM); 1.03 ± 0.085 (concentration: 6mM). Further, the NP40-soluble protein abundance runs as follows: (concentration: 8mM) 1.03 ± 0.048; (concentration: 10mM) 0.975 ± 0.095.

The values above are taken from the supplement of paper PMC6411743.
